Reference: paper PMC9724415
These are yes or no findings as the source states them, for the method shown. Binding seen in cells or lysates may run through a third protein. Some entries that bind do so weakly or less than the wild type.

Amino acid sequences for entries named in this document (tags omitted).
UniProt Q70CQ3: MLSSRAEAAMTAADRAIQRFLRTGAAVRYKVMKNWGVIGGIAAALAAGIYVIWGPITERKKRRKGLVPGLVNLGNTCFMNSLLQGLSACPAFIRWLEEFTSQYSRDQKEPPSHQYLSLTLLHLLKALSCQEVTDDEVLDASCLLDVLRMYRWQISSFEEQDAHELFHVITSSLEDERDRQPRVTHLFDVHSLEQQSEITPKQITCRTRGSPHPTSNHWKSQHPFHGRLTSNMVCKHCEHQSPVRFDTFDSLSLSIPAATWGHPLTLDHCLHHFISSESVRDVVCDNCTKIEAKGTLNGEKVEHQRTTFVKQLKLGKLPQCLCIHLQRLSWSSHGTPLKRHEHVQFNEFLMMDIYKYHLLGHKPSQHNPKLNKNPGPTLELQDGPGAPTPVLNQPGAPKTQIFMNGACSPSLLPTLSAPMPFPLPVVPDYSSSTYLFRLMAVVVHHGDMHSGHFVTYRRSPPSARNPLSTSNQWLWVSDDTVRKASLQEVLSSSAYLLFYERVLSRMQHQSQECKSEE
UniProt P01106: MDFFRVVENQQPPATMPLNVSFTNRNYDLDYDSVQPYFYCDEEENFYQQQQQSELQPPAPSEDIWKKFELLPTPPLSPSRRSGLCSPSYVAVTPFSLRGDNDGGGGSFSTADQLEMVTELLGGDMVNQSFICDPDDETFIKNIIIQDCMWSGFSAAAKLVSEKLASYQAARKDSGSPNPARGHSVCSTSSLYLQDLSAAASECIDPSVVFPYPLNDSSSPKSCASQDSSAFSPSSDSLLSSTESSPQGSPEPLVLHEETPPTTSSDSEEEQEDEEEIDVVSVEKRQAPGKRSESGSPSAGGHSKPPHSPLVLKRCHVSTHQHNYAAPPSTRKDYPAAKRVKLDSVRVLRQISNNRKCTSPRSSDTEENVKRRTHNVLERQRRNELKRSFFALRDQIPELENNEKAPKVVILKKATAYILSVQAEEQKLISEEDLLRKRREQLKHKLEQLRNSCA

Target: USP30 (human (endogenous in HSC4)) (UniProt Q70CQ3)
Assay: co-IP; HSC4 cell lysates (1% Triton X-100, 150 mM NaCl, 20 mM Tris pH 7.5, 1 mM EDTA, protease inhibitors) incubated with normal IgG, anti-USP30 or anti-c-Myc antibodies, then Protein A/G PLUS-Agarose beads at 4 °C for 2 h; washed three times; Western blot

In the case of c-Myc (from UniProt P01106 1-454), the binding is reported as “binds”.
